Test results published in PubChem BioAssay AID2517 (National Center for Advancing Translational Sciences (NCATS), 2010).
Values joined by “and” are separate entries in the source; they are usually repeats but may differ in a detail not shown here. Equal values may be shown once. Among all 350,000 compounds or so, about 1,200 (0.34%) were called active. This list was built around the results that the source calls inconclusive (neither active nor inactive); the mix of calls is not that of the screen. Calls follow the shape of the dose curve; as a rule, active = well fitted inhibition curve with a large enough effect; inconclusive = small, poorly fitted or top-dose-only effect; inactive = no such curve, though single readings can be large or run the other way. Where the call is inconclusive, the potency comes from a doubtful curve fit. Non-standard residues stand in square brackets, D forms with d. Residues, ends and D or L forms follow the SMILES beside them. Orn = NCCC[C@H](N)C(=O)O

By UniProt entry, the sequences of proteins in these tests, tags left out.
UniProt P27695, whole entry, looked up: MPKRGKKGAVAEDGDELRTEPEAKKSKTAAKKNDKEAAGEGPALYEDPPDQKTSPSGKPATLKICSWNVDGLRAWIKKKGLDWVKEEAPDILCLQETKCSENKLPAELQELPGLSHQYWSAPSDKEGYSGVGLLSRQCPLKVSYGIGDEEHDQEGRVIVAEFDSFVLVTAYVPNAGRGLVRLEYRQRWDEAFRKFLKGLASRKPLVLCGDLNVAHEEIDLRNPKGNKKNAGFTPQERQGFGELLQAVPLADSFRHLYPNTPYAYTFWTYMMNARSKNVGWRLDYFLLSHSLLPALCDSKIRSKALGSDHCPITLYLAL

molecular target: DNA repair nuclease/redox regulator APEX1 (Homo sapiens) (UniProt P27695); experiment: qHTS Assay for Inhibitors of the Human Apurinic/apyrimidinic Endonuclease 1 (APE1); details: recombinant APE1, TAMRA/BHQ-2 abasic DNA cleavage fluorescence; activity change, negative = inhibition: at 65.8 µM (top of the series); also: nearly all actives have a fitted effect of over 55% in size;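 as to activity change, negative = inhibition: plate controls were vehicle for no effect and reference inhibitor for full effect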
In short: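 APE1 at 0.75 nM preincubated 15 min at room temperature with compound. Reaction then started with 50 nM double-stranded THF-abasic substrate labelled with TAMRA/BHQ-2, and 525/598 nm fluorescence read kinetically. Activity taken as third-minus-first read difference, normalized to DMSO and NSC13755 controls.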
Potency is read from the fitted curve at half-maximal effect.

| SMILES | Potency | activity change, negative = inhibition |
| --- | --- | --- |
| Cc1onc(-c2ccccc2)c1C(=O)Oc1ccccc1 | inconclusive: 3.98 µM [inhibitor, single point] |  |
| Cc1nn(CC(=O)N/N=C/c2cccs2)c(C)c1[N+](=O)[O-] | inactive |  |
| COc1cc(OC)c(OC)cc1C#N | inconclusive: 7.94 µM [inhibitor, single point] |  |
| COc1cccc(C(=O)c2c(C)c(CCC#N)n3ccccc23)c1OC | inconclusive: 0.316 µM [inhibitor, full curve, poor fit] |  |
| C=C1Cc2c(Cl)cc3[nH]c4c5c3c2[C@@]2(O)[C@@H]1C[C@@H]2C(C)(C)O[C@H]5[C@@H]1CC[C@@]2(O)[C@@]35O[C@@H]3[C@@H](O)[C@@H](C(=O)O)O[C@H]5CC[C@]2(C)[C@@]41C | inconclusive: 35.5 µM [inhibitor, single point] |  |
| O=C(c1ccccc1NS(=O)(=O)c1ccc(Br)cc1)N1CCOCC1 | inactive |  |
| COc1ccccc1N1CCN(c2ccc(-c3ccccc3)nn2)CC1 | inactive |  |
| Cn1c(O)c(/C=C2\C=Nc3ccccc32)sc1=Nc1ccc(C(=O)O)cc1 | inconclusive: 31.6 µM [inhibitor, partial curve] |  |
| COc1ccccc1N1CC(C)(C)C(=O)N(C(=O)c2ccc(Cl)cc2)C1=S | inconclusive: 8.91 µM [inhibitor, single point] |  |
| COc1cc2cc(Oc3ccc4ccc(=O)oc4c3)c(=O)oc2cc1OC1OC(COC(=O)CC(C)(O)CC(=O)O)C(O)C(O)C1O (centres undefined) | inactive |  |
| CC(=O)N(Cc1ccc(F)cc1)c1cccc(C)c1C | inconclusive: 7.08 µM [inhibitor, single point] |  |
| O=C1Nc2ccccc2/C1=C/c1cnc(-c2ccccc2)[nH]1 | inactive |  |
| Cc1ccccc1/C=N/Nc1ccnc2cc(Cl)ccc12 | inconclusive: 44.7 µM [inhibitor, single point] |  |
| CCOC(=O)COc1ccc2c(C)c(CCN(CC)CC)c(=O)oc2c1Cl | inactive |  |
| CC/C(C)=N\NC(=O)CNC(=O)c1ccc(Cl)cc1Cl | inconclusive: 0.0045 µM [inhibitor, full curve, poor fit] |  |
| O=C1C=C(O)c2c(O)cccc2C1=O | inconclusive: 7.08 µM [inhibitor, partial curve] |  |
| O=C(NCc1nnc2n1CCCCC2)c1ccc(Cl)cc1Cl | inconclusive: 44.7 µM [inhibitor, single point] |  |
| CC(C)CNC(=O)c1cccc(C(=O)NCC(C)C)c1 | inconclusive: 44.7 µM [inhibitor, single point] |  |
| COc1ccc(C(NC(=O)/C=C/c2ccco2)c2ccc(OC)cc2)cc1 | inconclusive: 28.2 µM [inhibitor, single point] |  |
| COc1ccc(C2CC(=O)c3ccc(OC)cc3O2)cc1 (centres undefined) | inconclusive: 10 µM [inhibitor, single point] |  |

Record cards (already shown):
COc1cc2cc(Oc3ccc4ccc(=O)oc4c3)c(=O)oc2cc1OC1OC(COC(=O)CC(C)(O)CC(=O)O)C(O)C(O)C1O (centres undefined) is listed as Potency: inactive
Cc1nn(CC(=O)N/N=C/c2cccs2)c(C)c1[N+](=O)[O-] is listed as Potency: inactive
COc1ccccc1N1CCN(c2ccc(-c3ccccc3)nn2)CC1 is listed as Potency: inactive

Remaining list, next part:

| SMILES | Potency | activity change, negative = inhibition |
| --- | --- | --- |
| O=c1/c(=C/c2ccc(O)cc2)sc2nc3cc(Br)cnc3n12 | inconclusive: 2.51 µM [inhibitor, partial curve, poor fit] |  |
| CN1C(=O)N(C)c2ccc(C=O)c3cccc1c23 | inconclusive: 39.8 µM [inhibitor, single point] |  |
| COc1ccc(Nc2nc(=O)c3cc([N+](=O)[O-])ccc3s2)cc1 | inconclusive: 20 µM [inhibitor, single point] |  |
| Cc1cccc(NC(=O)CN2C(=O)S/C(=C\c3ccc(O)c([N+](=O)[O-])c3)C2=O)c1 | inactive |  |
| C#CCOCCOCCOCCNc1nc(N2CCN(C(=O)CCCCCCCCCCNC(=O)[C@H]([C@@H](C)CC)n3cc(CCCCN=C(N)N)nn3)CC2)nc(N2CCN(C(=O)CCCCCCCCCCNC(=O)[C@H]([C@@H](C)CC)n3cc(CCCCN=C(N)N)nn3)CC2)n1 | inconclusive: 33.6 µM [inhibitor, single point] |  |
| O=C(/C=C/c1ccc(O)c(O)c1)NC(=O)c1ccccc1O | inconclusive: 17.8 µM [inhibitor, partial curve] |  |
| NC(=O)CC[C@@H]1NC(=O)[C@H](CO)NC(=O)c2cc([N+](=O)[O-])cc(I)c2NCCC[C@@H](C(N)=O)NC(=O)[C@H](Cc2ccc(O)cc2)NC1=O | inconclusive: 7.94 µM [inhibitor, single point] |  |
| Cc1nn(C)c2ncc(C(N)=O)c(Oc3ccc(Cl)cc3)c12 | inconclusive: 0.631 µM [inhibitor, full curve, poor fit] |  |
| CCOC(=O)C(CCc1ccccc1)NC(C)C(=O)N1CCCC1C(=O)O (centres undefined) | active: 2.24 µM |  |
| CC(C)C[C@@H]1NC(=O)[C@H](CCCN)NC(=O)[C@H](C(C)C)NC(=O)[C@@H]2CCCN2C(=O)[C@@H](Cc2ccccc2)NC(=O)[C@H](CC(C)C)NC(=O)[C@H](CCCN)NC(=O)[C@H](C(C)C)NC(=O)[C@@H]2CCCN2C(=O)[C@@H](Cc2ccccc2)NC1=O (cyclo(V[Orn]L[dF]PV[Orn]L[dF]P)) | inconclusive: 3.16 µM [inhibitor, full curve] |  |
| C[C@H](NC(=O)c1nc[nH]c1C(=O)N[C@H](C)c1ccccc1)C(=O)OCc1ccccc1 | inconclusive: 28.2 µM [inhibitor, partial curve, poor fit] |  |
| NC(=S)N/N=C/c1ccc(-c2cccc([N+](=O)[O-])c2)o1 | inconclusive: 39.8 µM [inhibitor, single point] |  |
| O=C(CNC(=O)c1ccccc1F)OCc1csc(-c2ccccc2)n1 | inconclusive: 0.398 µM [inhibitor, full curve, poor fit] |  |
| Cc1csc(NC(=O)c2ccc(C)c(S(=O)(=O)N3CCOCC3)c2)n1 | inconclusive: 0.794 µM [inhibitor, full curve] |  |
| Nc1c(C(=O)OCC(=O)Nc2cccc([N+](=O)[O-])c2)[nH]c(=O)[nH]c1=O | inconclusive: 8.44 µM [inhibitor, partial curve] |  |
| Nc1cc(N)nc(SCCc2ccccc2)n1 | inactive |  |
| Cn1cc([N+](=O)[O-])c(C(=O)Nc2cc(Oc3ccccc3)cc([N+](=O)[O-])c2)n1 | inconclusive: 31.6 µM [inhibitor, single point] |  |
| COC(=O)C1SCC2C(=O)N(Cc3ccc(Cl)cc3)CC(=O)N21 (centres undefined) | inconclusive: 7.94 µM [inhibitor, single point] |  |
| O=C(CNCc1ccccc1Cl)Nc1ccc2c(c1)OCCO2 | inconclusive: 17.8 µM [inhibitor, single point] |  |
| COC(=O)NC(c1cccc(F)c1)[C@@]1(C(=O)OC)CCCC1=O (some centres undefined) | inconclusive: 6.31 µM [inhibitor, single point] |  |

| SMILES | Potency | activity change, negative = inhibition |
| --- | --- | --- |
| CC1CC(=O)N(CC(=O)N2CCCC2)c2ccccc2S1 (centres undefined) | inconclusive: 0.01 µM [inhibitor, full curve, poor fit] |  |
| COC(=O)c1c(NC(=O)CN(c2ccccc2)S(C)(=O)=O)sc2c1CCCC2 | inconclusive: 4.47 µM [inhibitor, single point] |  |
| Cc1cccc(NC2=NCC(=O)N2Cc2cccs2)c1 | inconclusive: 0.0355 µM [inhibitor, full curve, poor fit] |  |
| COc1ccc(CCNC(=O)c2ccc3c(=O)n(Cc4ccco4)c(=S)[nH]c3c2)cc1OC | inconclusive: 35.5 µM [inhibitor, single point] |  |
| Cc1ccc2c(c1)c(=O)c1c3n2CCN(C(=O)CCl)C3CC1 (centres undefined) | inconclusive: 1.41 µM [inhibitor, full curve, poor fit] |  |
| Cc1ccc(C(=O)Nc2ccc(S(=O)(=O)O)c3cc(S(=O)(=O)O)cc(S(=O)(=O)O)c23)cc1NC(=O)c1cccc(NC(=O)Nc2cccc(C(=O)Nc3cc(C(=O)Nc4ccc(S(=O)(=O)O)c5cc(S(=O)(=O)O)cc(S(=O)(=O)O)c45)ccc3C)c2)c1 | active: 28.2 µM and active: 14.1 µM and active: 22.4 µM |  |
| O=C(NC1CCCCCC1)c1ccc2nc3cc(Cl)ccc3c(=O)n2c1 | inconclusive: 0.891 µM [inhibitor, full curve, poor fit] |  |
| NC(=S)n1[nH]c(-c2ccc([N+](=O)[O-])cc2)c(N=Nc2cccc([N+](=O)[O-])c2)c1=O | inconclusive: 44.7 µM [inhibitor, single point] |  |
| Cc1cc(C(C)(C)C)cc(C)c1C[n+]1ccc2ccccc2c1 | inactive |  |
| O=C(COC(=O)CC1CCCC1)Nc1ccc(OC(F)F)cc1 | inconclusive: 28.2 µM [inhibitor, partial curve] |  |
| CCCN=C1CC(C)(C)CC(=O)/C1=C(/O)CCCN1C(=O)c2ccccc2C1=O | inactive |  |
| CC1=NN(c2ccc(C)c(C)c2)C(=O)C1C(c1cccc(O)c1)C1C(=O)N(c2ccc(C)c(C)c2)N=C1C (centres undefined) | inconclusive: 28.2 µM [inhibitor, partial curve, poor fit] |  |
| C=CCOC(=O)C(C(=O)CC)C(NC(=O)OC)c1ccc(F)cc1 (centres undefined) | inconclusive: 4.47 µM [inhibitor, single point] |  |
| Cc1cccc(/C=N/NC(=O)C(C)Nc2cccc3ccccc23)n1 (centres undefined) | inconclusive: 0.0708 µM [inhibitor, full curve, poor fit] |  |
| O=C(Cc1ccc(Br)cc1)Nc1cccc(S(=O)(=O)N2CCOCC2)c1 | inactive |  |
| CCc1ccc(NC(=O)CO/N=C(\C)c2cc3ccccc3o2)cc1 | inactive |  |
| C=CCN1c2ccccc2[C@]23C[C@@H](C(=O)OC)N(S(=O)(=O)c4ccc(C(F)(F)F)cc4)C2=NC(C(=O)OC)=C(C(=O)OC)[C@H]13 |  | inactive: -1.88% [at 12.4 µM] |
| Cc1ccc(NC(=O)Nc2cnccn2)cc1 | inactive |  |
| O=C(CN1C(=O)c2ccccc2S1(=O)=O)NCCSCc1ccco1 | inactive |  |
